Assay results from article PMC11076521.
Results are given in words; binding and its absence hold for the method and conditions named. In cells and extracts the contact can be indirect. Some binding calls cover weakened binding; strength is not graded here.

Protein sequences, listed by entry. Tags and fused reporters are not part of them. Lines headed by an entry give the natural chain unless they say otherwise; changes in a name come on top.
UniProt Q13772: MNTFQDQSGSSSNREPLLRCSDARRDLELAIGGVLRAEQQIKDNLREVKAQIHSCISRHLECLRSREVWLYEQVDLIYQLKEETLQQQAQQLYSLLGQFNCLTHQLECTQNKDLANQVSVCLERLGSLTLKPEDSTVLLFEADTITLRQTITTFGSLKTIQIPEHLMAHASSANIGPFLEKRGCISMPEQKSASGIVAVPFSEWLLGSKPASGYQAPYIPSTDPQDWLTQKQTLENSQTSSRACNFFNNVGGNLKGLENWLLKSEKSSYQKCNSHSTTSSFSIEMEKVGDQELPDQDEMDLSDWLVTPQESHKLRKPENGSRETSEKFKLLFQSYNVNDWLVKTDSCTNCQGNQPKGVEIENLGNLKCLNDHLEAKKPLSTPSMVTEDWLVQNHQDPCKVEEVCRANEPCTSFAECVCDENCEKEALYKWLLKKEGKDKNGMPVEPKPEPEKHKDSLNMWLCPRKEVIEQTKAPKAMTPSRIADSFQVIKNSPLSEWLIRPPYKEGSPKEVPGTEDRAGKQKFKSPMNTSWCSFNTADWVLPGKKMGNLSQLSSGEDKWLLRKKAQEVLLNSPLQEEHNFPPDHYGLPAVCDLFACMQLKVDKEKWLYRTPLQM
UniProt P02792: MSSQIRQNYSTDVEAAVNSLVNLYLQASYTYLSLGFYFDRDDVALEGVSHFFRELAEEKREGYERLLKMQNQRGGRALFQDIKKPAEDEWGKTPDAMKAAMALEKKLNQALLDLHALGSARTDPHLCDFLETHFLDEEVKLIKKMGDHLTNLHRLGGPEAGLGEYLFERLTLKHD

Target: mGFP-NCOA4 (UniProt Q13772)
Assay: co-IP; HeLa-FTH1 KO cells stably expressing mGFP-NCOA4 and mRuby3-FTH1/FTL constructs; anti-GFP IP of mGFP-NCOA4, immunoblot

## mRuby3-FTL-L2H mutant (FTL S19R, Q26Y, A86D, K106N) (from UniProt P02792 1-175)
  binding: binds
